The values below come from article PMC7819943, “Rice protein-binding microarrays: a tool to detect cis-acting elements near promoter regions in rice”.

By UniProt entry, the sequences of proteins in these tests, tags left out.
UniProt Q0JBA9, entry or part of it: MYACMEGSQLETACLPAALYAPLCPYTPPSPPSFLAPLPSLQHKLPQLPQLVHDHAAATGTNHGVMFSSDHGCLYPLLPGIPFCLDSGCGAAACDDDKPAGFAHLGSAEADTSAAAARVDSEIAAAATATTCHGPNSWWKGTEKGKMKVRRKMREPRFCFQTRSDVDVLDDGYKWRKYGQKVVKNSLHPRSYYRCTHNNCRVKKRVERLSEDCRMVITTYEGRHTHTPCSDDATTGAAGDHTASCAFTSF

Some of the results follow.

The target in this experiment is OsWRKY34 (Oryza sativa, UniProt Q0JBA9 1-250). The experiment is described as follows: protein-binding microarray (RPBM); PBS, 2% BSA, 51.3 ng/ul salmon testes DNA, 50 uM zinc acetate, 200 nM TF, 25 C, 1 h; high values mean tight binding. To be noted: protein: recombinant; tags: N-terminal polyhistidine and DsRed monomer fusion (pET32a); label: CyDye5-dUTP incorporated in the synthesized complementary strand; 3' TTTTT single-stranded linker to array surface; dsDNA, one strand shown. The method in brief:
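For the binding signal, per-feature fluorescence intensity was read in arbitrary units on an Axon 4000B scanner. Before scanning, a 2% BSA-blocked custom Agilent array made double-stranded with Cy5-dUTP was washed after 1 h at 25 °C with 200 nM protein and 50 µM zinc acetate. The proteins were Ni–NTA-purified transcription factors with N-terminal polyhistidine and DsRed fusions, expressed in E. coli BL21-CodonPlus.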
Consider “CCCATCTCGCCCTGTCCCGGCCTACATCCAAGCTTGAAATCGGAGTCACCTAGTGCAG”, for which the binding signal was 16000 fluorescence intensity (a.u.).

For “TAATTCGATTACTGTCAACTGTACGTGTTATTTATACTACCGGAGTCACCTAGTGCAG”, the binding signal was 8220 fluorescence intensity (a.u.).

As for “ACAGTTTCAGGCCCAGCTTTTCTTCTCCTTGCTTTTGATCCGGAGTCACCTAGTGCAG”, the binding signal is 9680 fluorescence intensity (a.u.).

With “GAACATTTCTTCTCTCCAATCAAATGTACGGACGGCTAAACGGAGTCACCTAGTGCAG”, the binding signal was 8520 fluorescence intensity (a.u.).

“TTCTGATTAACTGTCTGCTACTCTTGAAAGCTGCACTCGACGGAGTCACCTAGTGCAG”: the binding signal is 9920 fluorescence intensity (a.u.).

For “CAAGCGCTCACAGCCCAAACTTCCCACATTTTCCTTGGTTCGGAGTCACCTAGTGCAG”, the binding signal is 9710 fluorescence intensity (a.u.).

In the case of “CTCTATGTACACATTGTTTTTTTATTGGACATTAATTGATCGGAGTCACCTAGTGCAG”, the binding signal was 8620 fluorescence intensity (a.u.).

Take “ACCAAAATTGACTTAAATGTTGTTATATTTTTCTGTCCTACGGAGTCACCTAGTGCAG”: the binding signal is 8800 fluorescence intensity (a.u.).

For “TCTCCTCAGTCTTCACTATACTATTCCTATTACTAATAACCGGAGTCACCTAGTGCAG”, the binding signal was 9050 fluorescence intensity (a.u.).

For “CCTCCCTATTCGATTTAGCTAAACATGTGTTTTTTCATTTCGGAGTCACCTAGTGCAG”, the binding signal is 8460 fluorescence intensity (a.u.).

Regarding “GTCACCTTAACCTCAGTGTTGTTTCACCTGCCACGCCAGCCGGAGTCACCTAGTGCAG”, the binding signal is 9060 fluorescence intensity (a.u.).

For “GCAGTTAGCTAACACCTTCTGCCCTGACTATCATAGCCACCGGAGTCACCTAGTGCAG”, the binding signal was 9040 fluorescence intensity (a.u.).

Turning to “TCATATGCTGTAATTCTTTTTTTTTTTTTGTTATAAGTCACGGAGTCACCTAGTGCAG”, the binding signal is 8190 fluorescence intensity (a.u.).

With “ATTCTCCATTTTGATATTGAGCTCAACTTTGATTGGATTGCGGAGTCACCTAGTGCAG”, the binding signal was 9990 fluorescence intensity (a.u.).

As for “TACTTAAATAGTTTGATCCTCTTGTCTATTTCTTGCGTTTCGGAGTCACCTAGTGCAG”, the binding signal was 8060 fluorescence intensity (a.u.).

For “CACCCTGCTATCTCCATCTCCTCCACCGTTGCATCTTACCCGGAGTCACCTAGTGCAG”, the binding signal was 10100 fluorescence intensity (a.u.).

With “GCGTCCAGTTTTGTTTCTTGATACTCTCTCTCTACAAAATCGGAGTCACCTAGTGCAG”, the binding signal is 9580 fluorescence intensity (a.u.).

Consider “AAATCACCTATACCGTGTCTAATCCATCACCCACGCAATCCGGAGTCACCTAGTGCAG”, for which the binding signal was 9010 fluorescence intensity (a.u.).

On to “CCAACTAAAGCACGCCTTGCCATTGGTTGACTCTGCACCTCGGAGTCACCTAGTGCAG”, for which the binding signal was 8340 fluorescence intensity (a.u.).

Consider “CTCTCCTGTCCTCGAGCGGTTGGTTGATCGATCGATCAGCCGGAGTCACCTAGTGCAG”, for which the binding signal was 9480 fluorescence intensity (a.u.).

As to “ATCGTTTTCTGTCTCTTACGTGTACCTTTCAATACCCATCCGGAGTCACCTAGTGCAG”, the binding signal was 8640 fluorescence intensity (a.u.).

Consider “CCACCTCCTACGCAACCCACTGCACACTGCAATTTTTTTACGGAGTCACCTAGTGCAG”, for which the binding signal is 9420 fluorescence intensity (a.u.).

As for “AGTGTTGACCAGCTTTGACCACCTTACCCAACTCCTTGTGCGGAGTCACCTAGTGCAG”, the binding signal was 17200 fluorescence intensity (a.u.).

Regarding “GTGAACGGTTTGAATGAATTTATGGGCGAATATTTCTGGTCGGAGTCACCTAGTGCAG”, the binding signal was 8050 fluorescence intensity (a.u.).

Regarding “CCTCTCTTAACACTGCACACTGCCAACTTATCCATCAATTCGGAGTCACCTAGTGCAG”, the binding signal was 10800 fluorescence intensity (a.u.).

On to “TTTGCTTGTAACGTTTGACCACTCGTCTTATTCAAAGTTTCGGAGTCACCTAGTGCAG”, for which the binding signal was 10700 fluorescence intensity (a.u.).

On to “CTTGGTGTCCTCCTCTCAGTTGCTCTACTCTCGATTTCCACGGAGTCACCTAGTGCAG”, for which the binding signal is 8440 fluorescence intensity (a.u.).

As for “CTTAAAGCAGTTTGACTTTGACCAAAGTCAAAACGTCTTACGGAGTCACCTAGTGCAG”, the binding signal is 15400 fluorescence intensity (a.u.).

Consider “ACGCCTCACCTCACCTCACCTCACCGCCGTCTCCTTCCTCCGGAGTCACCTAGTGCAG”, for which the binding signal was 8940 fluorescence intensity (a.u.).

As for “AAATTTCACTTTGGATCACCTTTTATTACTAGTGTTTTACCGGAGTCACCTAGTGCAG”, the binding signal was 8330 fluorescence intensity (a.u.).

With “CCGCTTCTTTTTCTTAACTTTTGGGCCCGCTCTTTTCTTACGGAGTCACCTAGTGCAG”, the binding signal was 8790 fluorescence intensity (a.u.).

With “TTTTGCCACGAGCTCGCTCAAACTCACACACACGCTAATCCGGAGTCACCTAGTGCAG”, the binding signal is 9170 fluorescence intensity (a.u.).

Turning to “GGTGGGGACCTGGTGGTGGTTAGGCCGGTGTGCGCGACGGCGGAGTCACCTAGTGCAG”, the binding signal was 10000 fluorescence intensity (a.u.).

“ATGTCGTCCGCCACCGCCGCCGCCACCGCCACCATCGCCGCGGAGTCACCTAGTGCAG”: the binding signal is 8680 fluorescence intensity (a.u.).

Consider “AGACCGCTCGATCGTCCCGTCCGGCCTCGGCAGTTGCACTCGGAGTCACCTAGTGCAG”, for which the binding signal was 9710 fluorescence intensity (a.u.).

Regarding “ATGGCTGAATCTGTACAAGTGTCGTGAGGTGGAAAATTTCCGGAGTCACCTAGTGCAG”, the binding signal is 8930 fluorescence intensity (a.u.).

In the case of “CTTACAATTAACACTACTGTCTATGTCTCAATTCATACTACGGAGTCACCTAGTGCAG”, the binding signal is 8710 fluorescence intensity (a.u.).

For the sequence “TACTACTACTACTCGGATCACTCGCGCGCCCGTCCGCTTCCGGAGTCACCTAGTGCAG”, the binding signal is 9990 fluorescence intensity (a.u.).

For the sequence “GGCCGAGCAGGTCTCCCGCGCCTTCGACATCCCTCTGCCACGGAGTCACCTAGTGCAG”, the binding signal was 8600 fluorescence intensity (a.u.).

As for “GTCTGTATAGTTTACTACTTCTCTATTTAACAAAATTGGTCGGAGTCACCTAGTGCAG”, the binding signal was 9160 fluorescence intensity (a.u.).

For the sequence “AAATCGGCGCACCACCACCGCCCCGCCGTCCACGAATCGACGGAGTCACCTAGTGCAG”, the binding signal was 8150 fluorescence intensity (a.u.).

For “ATTCTTTTTCATAATTATGTAACCTTGATGCTTCCCTGACCGGAGTCACCTAGTGCAG”, the binding signal is 8160 fluorescence intensity (a.u.).
